Measured values as given in publication PMC6441012.
No constants are given. Whether binding was seen depends on the method and setting. In cells and extracts the contact can be indirect. Where a sequence is shown, tags or fusion partners need not be part of it.

Biological target: T1, Cox8-His (S. cerevisiae (endogenous in GA74-1A)) (UniProt P04039)
T1 sequence: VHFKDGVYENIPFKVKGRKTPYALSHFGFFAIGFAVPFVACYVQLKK
Test: pull-down; Ni-NTA agarose affinity purification of Cox8-His from 2% (w/v) SMA extracts of osmotically ruptured mitochondria (20 mM HEPES-KOH pH 8.0, 200 mM NaCl, 4 °C), washed with 10 and 20 mM imidazole, eluted with 60 mM imidazole; eluates (SMA nanodiscs) immunoblotted; Cox8-His in WT, psd1Δ, psd2Δ, psd1Δpsd2Δ, IM-Psd1, OM-Psd1 and ER-Psd1 strains

| binding | Binder |
| --- | --- |
| no binding | Tom70 (protein, UniProt P07213 1-617) MKSFITRNKTAILATVAATGTAIGAYYYYNQLQQQQQRGKKNTINKDEKKDTKDSQKETEGAKKSTAPSNPPIYPVSSNGEPDFSNKANFTAEEKDKYALALKDKGNQFFRNKKYDDAIKYYNWALELKEDPVFYSNLSACYVSVGDLKKVVEMSTKALELKPDYSKVLLRRASANEGLGKFADAMFDLSVLSLNGDFNDASIEPMLERNLNKQAMSKLKEKFGDIDTATATPTELSTQPAKERKDKQENLPSVTSMASFFGIFKPELTFANYDESNEADKELMNGLSNLYKRSPESYDKADESFTKAARLFEEQLDKNNEDEKLKEKLAISLEHTGIFKFLKNDPLGAHEDIKKAIELFPRVNSYIYMALIMADRNDSTEYYNYFDKALKLDSNNSSVYYHRGQMNFILQNYDQAGKDFDKAKELDPENIFPYIQLACLAYRENKFDDCETLFSEAKRKFPEAPEVPNFFAEILTDKNDFDKALKQYDLAIELENKLDGIYVGIAPLVGKATLLTRNPTVENFIEATNLLEKASKLDPRSEQAKIGLAQMKLQQEDIDEAITLFEESADLARTMEEKLQAITFAEAAKVQQRIRSDPVLAKKIQETLAKLREQGLM |
| no binding | OM45 (protein, UniProt P16547 1-393) MSSRIIVGSAALAAAITASIMVREQKAKGQRREGNVSAYYNGQEYGSSAPPQLGKLHNIKQGIKEDALSLKDALLGVSQKAREEAPKVTKRVISPEEDAQTRKQLGQKAKDSSSQSIFNWGFSEAERRKAIAIGEFDTAKKRFEEAVDRNEKELLSTVMREKKAALDRASIEYERYGRARDFNELSDKLDQQERNSNPLKRLLKNNTGDANTEEAAARSVQGWGDTAQEFGREELEEAKRNASSEPSEAQKRLDELKKIKEKGWFGYNKGEQSEQQIAERVARGLEGWGETAAQLSKDEMDDLRWNYENSKKQLDKNVSDAMDSLSKAKEDLKQYGSHWWSGWTSKVDNDKQALKDEAQKKYDEALKKYDEAKNKFKEWNDKGDGKFWSSKKD |
